Laboratory results as given in patent US20150010479A1, “TREATMENT OF MICROBIAL INFECTIONS” (SINCLAIR PHARMACEUTICALS LIMITED, priority 2012, published 2015).
Values joined by “and” are separate entries in the source; they are usually repeats but may differ in a detail not shown here. Equal entries are not always repeated. Where two headings read alike, the source gives them in different places.

Experiments:
[1] = system: C. albicans; assay: MIC/MBC of CPC or delmopinol alone; type: cell-based; conditions: Candida albicans
Procedure: (§1) The final mixture was then sterilized by filtration using a […] PES filter (Nalgene, 169-0045).
(§2) Bacterial preparations were prepared using freshly grown cultures on solid media. Several loop-fulls of culture were transferred to 10-20 ml of the appropriate broth and vortexed gently until a fine suspension was produced. The initial OD600 nm of the cell suspensions was measured and adjusted to 0.2 to give a colony count of 1×10^8 cfu/ml. Final inocula were prepared by diluting the adjusted cell suspensions in appropriate broth as detailed below:
(§3) The broths were added to wells in columns 1, 11 (negative control, broth only) and 12 (positive control).
(§4) 100 μl of normal broth (standard assay) or broth A was added to wells in columns 2-10.
(§5) After mixing in column 10, 100 μl was discarded. 5 μl of the appropriate solvent was added to wells in column 12, mixed and 100 μl discarded.
(§6) Finally, 100 μl of inoculum (prepared in either normal broth or 2× broth A) was added to the wells in columns 1-10 and 12 and the plates were incubated as described above.

[2] = system: E. coli; assay: MIC/MBC of CPC or delmopinol alone; type: cell-based; conditions: Escherichia coli
Procedure: as §1, §2, §3, §4, §5, §6

[3] = system: S. aureus; assay: MIC/MBC of CPC or delmopinol alone; type: cell-based; conditions: Staphylococcus aureus
Procedure: as §1, §2, §3, §4, §5, §6

[4] = system: P. gingivalis; assay: MIC/MBC of CPC or delmopinol alone; type: cell-based; conditions: Porphyromonas gingivalis
Procedure: as §1, §2, §3, §4, §5, §6

[5] = system: Prv. nigrescence; assay: MIC/MBC of CPC or delmopinol alone; type: cell-based; conditions: Prevotella, compound alone
Procedure: as §1, §2, §3, §4, §5, §6

[6] = system: P. gingivalis; assay: CPC and delmopinol combination (chequerboard assay), FICi/FBCi; type: cell-based, Porphyromonas gingivalis; conditions: CPC + delmopinol, Decapinol base (Broth A)
Procedure: 190 μl of normal broth (standard assays) or broth A was added to wells of a 96 well plate. […] 5 μl of each dilution of delmopinol was added to the appropriate wells of the 96 wells plate. The contents of each well were mixed thoroughly and then 100 μl volume was discarded.
Plates were then incubated as described above. […] Following incubation the plates were examined and growth/no growth recorded for every well sample (used for FBC determination).
FBCi were calculated in the same manner but using MBC data.
The FICi and FBCi were interpreted using the same parameters as set out above.

[7] = system: E. faecalis; assay: MIC/MBC of CPC or delmopinol alone; type: cell-based, Entercoccus faecalis; conditions: Enterococcus faecalis
Procedure: as §1, §2, §3, §4, §5, §6

[8] = system: S. aureus; assay: CPC in combination with ¼ MIC of delmopinol, FICi/FBCi; type: cell-based, Staphylococcus aureus; conditions: CPC + ¼ MIC delmopinol (not full FIC/FBC)
[9] = read-out: Activity alone Decapinol base MBC
[10] = read-out: Activity alone Decapinol base MIC
[11] = read-out: Activity alone Standard MBC
[12] = read-out: Activity alone Standard MIC

CCCCCCCCCCCCCCCC[n+]1ccccc1 [CPC, cetylpyridinium chloride]
MBC [1, 9]: 0.98 µg/mL and 2.9 µM
MIC [1, 10]: 0.49 µg/mL and 1.4 µM
MBC [1, 11]: 0.98 µg/mL and 2.9 µM
MIC [1, 12]: 0.98 µg/mL and 2.9 µM
MBC [2, 9]: 62.5 µg/mL and 184 µM
MIC [2, 10]: 15.6 µg/mL and 45.9 µM
MBC [2, 11]: 31.2 µg/mL and 91.9 µM
MIC [2, 12]: 15.6 µg/mL and 45.9 µM
MBC [3, 9]: 1.95 µg/mL and 5.7 µM
MIC [3, 10]: 0.49 µg/mL and 1.4 µM
MBC [3, 11]: 7.8 µg/mL and 22.9 µM
MIC [3, 12]: 3.9 µg/mL and 11.5 µM
MBC [4, 9]: 0.49 µg/mL and 1.4 µM
MIC [4, 10]: 0.49 µg/mL and 1.4 µM
MBC [4, 11]: 0.49 µg/mL and 1.4 µM
MIC [4, 12]: 0.49 µg/mL and 1.4 µM
MBC ([5]; Decapinol base (Broth A), no delmopinol or sodium benzoate present, read-out: Activity alone Decapinol base MBC): 0.49 µg/mL and 1.4 µM
MIC ([5]; Decapinol base (Broth A), no delmopinol or sodium benzoate present, read-out: Activity alone Decapinol base MIC): 0.25 µg/mL and 0.7 µM
MBC ([5]; Standard broth, read-out: Activity alone Standard MBC): 0.49 µg/mL and 1.4 µM
MIC ([5]; Standard broth, read-out: Activity alone Standard MIC): 0.06 µg/mL and 0.2 µM
Combination with delmopinol (FIC) Decapinol base FICi [6]: 1.5
MBC [7, 9]: 3.9 µg/mL and 11.5 µM
MIC [7, 10]: 0.98 µg/mL and 2.9 µM
MBC [7, 11]: 15.6 µg/mL and 45.9 µM
MIC [7, 12]: 1.95 µg/mL and 5.7 µM
Combination with delmopinol (FIC) Decapinol base FICi ([8]; Decapinol base (Broth A)): 0.38 s
Combination with delmopinol (FIC) Standard FICi ([8]; Standard broth): 0.38 s
